Source: paper doi:10.1101/2022.02.08.479400

Molecular target: T1, nEYFP-fused PDR6 (Arabidopsis thaliana) (UniProt Q7PC87)
T1 sequence: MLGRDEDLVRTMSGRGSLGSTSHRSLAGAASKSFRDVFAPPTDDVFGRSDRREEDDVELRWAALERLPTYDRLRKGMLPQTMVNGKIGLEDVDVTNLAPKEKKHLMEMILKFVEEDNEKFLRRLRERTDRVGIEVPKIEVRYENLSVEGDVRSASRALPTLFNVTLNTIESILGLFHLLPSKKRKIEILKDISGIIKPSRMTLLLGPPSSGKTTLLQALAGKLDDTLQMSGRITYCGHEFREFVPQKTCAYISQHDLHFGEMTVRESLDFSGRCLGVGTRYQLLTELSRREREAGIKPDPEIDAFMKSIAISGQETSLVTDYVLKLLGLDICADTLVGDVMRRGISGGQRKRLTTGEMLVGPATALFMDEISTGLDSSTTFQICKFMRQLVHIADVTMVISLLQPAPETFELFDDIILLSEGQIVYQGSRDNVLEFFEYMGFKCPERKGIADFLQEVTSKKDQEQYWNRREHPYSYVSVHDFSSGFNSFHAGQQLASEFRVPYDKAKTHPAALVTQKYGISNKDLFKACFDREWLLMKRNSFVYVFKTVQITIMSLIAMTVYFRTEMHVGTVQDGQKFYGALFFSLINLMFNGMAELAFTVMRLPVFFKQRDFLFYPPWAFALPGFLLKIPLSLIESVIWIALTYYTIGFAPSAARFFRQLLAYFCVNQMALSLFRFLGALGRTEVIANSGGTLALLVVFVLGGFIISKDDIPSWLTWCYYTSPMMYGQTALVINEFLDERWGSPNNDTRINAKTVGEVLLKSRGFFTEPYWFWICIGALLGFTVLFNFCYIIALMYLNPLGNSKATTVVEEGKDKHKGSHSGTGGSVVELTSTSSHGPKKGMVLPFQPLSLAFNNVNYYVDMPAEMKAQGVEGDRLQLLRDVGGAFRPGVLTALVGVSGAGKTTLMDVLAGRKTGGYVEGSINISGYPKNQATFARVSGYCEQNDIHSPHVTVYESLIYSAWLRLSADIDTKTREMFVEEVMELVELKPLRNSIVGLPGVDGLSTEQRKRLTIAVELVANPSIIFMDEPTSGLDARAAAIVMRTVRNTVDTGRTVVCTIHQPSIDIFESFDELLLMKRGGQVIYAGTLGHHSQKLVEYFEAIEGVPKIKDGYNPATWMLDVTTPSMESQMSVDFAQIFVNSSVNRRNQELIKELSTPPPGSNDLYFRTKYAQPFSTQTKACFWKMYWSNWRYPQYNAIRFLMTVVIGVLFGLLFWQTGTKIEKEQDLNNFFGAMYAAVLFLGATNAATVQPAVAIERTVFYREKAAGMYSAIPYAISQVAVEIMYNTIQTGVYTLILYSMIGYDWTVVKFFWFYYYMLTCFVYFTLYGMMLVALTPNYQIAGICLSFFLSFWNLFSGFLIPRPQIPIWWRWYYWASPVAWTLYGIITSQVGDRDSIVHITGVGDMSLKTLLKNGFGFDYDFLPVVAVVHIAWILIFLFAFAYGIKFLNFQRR
Assay: split reporter

- binding: binds
Substance: cEYFP-fused AGC2-2 (from UniProt Q7DST2) (enzyme)

No constants are given. Whether binding was seen depends on the method and setting. In cells and extracts the contact can be indirect. Binding calls can cover weak binding; strength is not graded here. Sequences can lack the tags named with a protein.
